According to PubChem BioAssay AID540276 (National Center for Advancing Translational Sciences (NCATS), 2011):
Out of some 300,000 compounds screened, about 5,400 (1.8%) were called active. The inconclusive results got no clear call from the source; some entries with a clear call stand among them for comparison. Calls come from the whole dose curve; tested in HEK293 cells. A potency beside an inconclusive call is a rough fit, not a confirmed value.

assay: qHTS for inhibitors of binding or entry into cells for Marburg Virus; settings: Marburg virus pseudotyped entry inhibition, cell reporter; series mostly up to 37.8 µM
Potency is the fitted concentration of half-maximal effect.

Row | SMILES | Potency
1 | Cc1nc(C)c(-c2ccc(SCC(=O)Nc3cccc(F)c3)nn2)s1 | inconclusive: 17.8 µM [inhibitor, partial curve, poor fit]
2 | O=C1/C(=C\c2ccco2)SC(=S)N1c1ccc(O)cc1 | inconclusive: 11.2 µM [activator, partial curve, poor fit]
3 | O=C(CSCc1ccco1)Nc1cc(C(F)(F)F)ccc1N1CCOCC1 | inactive
4 | CCCC(=O)Nc1nc(-c2ccc(OC)cc2)cs1 | inconclusive: 35.5 µM [activator, partial curve, poor fit]
5 | O=CN1CC(=O)N(c2ccccc2)c2c([nH]c3ccccc23)C1 | inactive
6 | Cc1ccc(CN(Cc2cc3cccc(C)c3[nH]c2=O)C(=S)NCCCN(C)C)cc1 | active: 4.47 µM
7 | CC(C)C(=O)NNc1nc2ccccc2s1 | inactive
8 | CC(=O)Nc1ccc(Nc2ncnc3c2cnn3-c2ccccc2)cc1 | inconclusive: 16.4 µM [inhibitor, single point]
9 | O=[N+]([O-])c1cccc2ccc(/C=C/c3ccc(Cl)cc3)nc12 | inconclusive: 8.91 µM [activator, partial curve, poor fit]
10 | CC(=O)C1=C(C)NC(SCC(=O)c2ccc(Cl)cc2)=C(C#N)C1c1ccco1 (stereo not given) | inconclusive: 20.6 µM [inhibitor, single point]
11 | CN(c1nnc(N)s1)C1CCCCC1 | inactive
12 | Cc1[nH]ccc2c1[nH]c1cc(=O)ccc12 | inconclusive: 7.08 µM [inhibitor, full curve, poor fit]
13 | COc1ccc(N2CCN(Cc3cc(=O)c(OCC(=O)NC4CCCC4)co3)CC2)cc1 | inconclusive: 12.6 µM [activator, single point]
14 | CCCOc1ccc(-c2nc(C#N)c(NCC3CCCO3)o2)cc1 (stereo not given) | inactive
15 | Cc1nc2ccc(S(=O)(=O)Nc3ccccc3C)cc2s1 | inconclusive: 6.51 µM [inhibitor, single point]
16 | O=C(O)C1C2C=CC(C2)C1C(=O)NC1CCS(=O)(=O)C1 (stereo not given) | inconclusive: 17.8 µM [activator, partial curve, poor fit]
17 | COc1ccc(CN2CCN(Cc3cn(C)nc3-c3ccccc3)CC2CCO)c(C)c1C (stereo not given) | inconclusive: 35.5 µM [inhibitor, single point]
18 | CS(=O)(=O)N(Cc1ccccc1)c1ccc(C(=O)NCCSc2ccccn2)cc1 | inconclusive: 11.2 µM [inhibitor, partial curve]
19 | CCOC(=O)NC1(NC(C)C)Oc2ccccc2O1 | inactive
20 | CNc1cc(Cl)nc(SC)n1 | inconclusive: 15.8 µM [activator, single point]

Fetched by structure from above:
Row | SMILES | Potency
10 | CC(=O)C1=C(C)NC(SCC(=O)c2ccc(Cl)cc2)=C(C#N)C1c1ccco1 (stereo not given) | inconclusive: 20.6 µM [inhibitor, single point]
16 | O=C(O)C1C2C=CC(C2)C1C(=O)NC1CCS(=O)(=O)C1 (stereo not given) | inconclusive: 17.8 µM [activator, partial curve, poor fit]
